In publication PMC7282669, “The hydrophobic effect characterises the thermodynamic signature of amyloid fibril growth” (PLoS Computational Biology, 2020) one finds binding data, which are given here for 1 molecule.

Results are given in words; binding and its absence hold for the method and conditions named. Some binding calls cover weakened binding; strength is not graded here.

Assay [1] concerns the target T1, Bovine α-lactalbumin (bovine), P00711.
T1 chain: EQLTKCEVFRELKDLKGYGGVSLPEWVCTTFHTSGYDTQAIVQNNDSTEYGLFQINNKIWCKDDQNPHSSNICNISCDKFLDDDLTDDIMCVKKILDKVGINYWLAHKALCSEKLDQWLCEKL
Kind of assay: chemical depolymerisation of amyloid fibrils (soluble protein by Bradford reagent); GndSCN; isodesmic linear polymerisation model; both purified. Particulars: remark: other sources report otherwise.

Assay [2] has the same target. The assay is described as follows: ITC; fibril elongation; monomer titrated into sonicated seed fibril suspension; VP-ITC; 10 mM HCl, 100 mM NaCl; monomer 100-350 μM; several temperatures; both purified. Particulars: remark: other sources report otherwise. In general terms: ITC needs no label: the signal is the heat of the interaction.

B1: Bovine α-lactalbumin, P00711 20-142 (protein)
chain: T1 chain
B1: the binding result in assay [1] and in assay [2] was “binds” in each case.
